Reference: US20070184018A1, “Anthranilamide insecticides” (priority 2004, published 2007)
Some of these results come from one statement about several compounds together.

How the values were obtained:
[1] = system: fall armyworm (Spodoptera frugiperda); experiment: Test B: control of fall armyworm on corn (maize) plant, foliar spray; format: in vivo; conditions: sprayed at 50 ppm, 1-day-old larvae, 6 days, visually rated
[2] = system: diamondback moth (Plutella xylostella); experiment: Test A: control of diamondback moth on radish plant, foliar spray; format: in vivo; conditions: sprayed at 50 ppm, neonate larvae, 6 days, visually assessed foliage consumed

CNC(=O)c1cc(C#N)cc(C)c1NC(=O)c1cc(Br)nn1-c1ccccc1F [Compound 68]
excellent levels of plant protection (feeding damage) [1]: ≤ 20% | very good to excellent levels of plant protection (feeding damage) [2]: ≤ 20%

Cc1cc(C#N)cc(C(=O)NC(C)C)c1NC(=O)c1cc(Br)nn1-c1ccccc1F [Compound 69]
excellent levels of plant protection (feeding damage) [1]: ≤ 20% | very good to excellent levels of plant protection (feeding damage) [2]: ≤ 20%

C#CCNC(=O)c1cc(C#N)cc(C)c1NC(=O)c1cc(Br)nn1-c1ccccc1F [Compound 72]
excellent levels of plant protection (feeding damage) [1]: ≤ 20% | very good to excellent levels of plant protection (feeding damage) [2]: ≤ 20%

CC(C)NC(=O)c1cc(C#N)cc(Cl)c1NC(=O)c1cc(C(F)(F)F)nn1-c1c(Cl)cccc1Cl [Compound 74]
excellent levels of plant protection (feeding damage) [1]: ≤ 20% | very good to excellent levels of plant protection (feeding damage) [2]: ≤ 20%

N#CCNC(=O)c1cc(Cl)cc(Cl)c1NC(=O)c1cc(Br)nn1-c1ccccc1Cl [Compound 80]
excellent levels of plant protection (feeding damage) [1]: ≤ 20% | very good to excellent levels of plant protection (feeding damage) [2]: ≤ 20%

Cc1cc(Cl)cc(C(=O)NCC#N)c1NC(=O)c1cc(Br)nn1-c1ccccc1Cl [Compound 82]
excellent levels of plant protection (feeding damage) [1]: ≤ 20% | very good to excellent levels of plant protection (feeding damage) [2]: ≤ 20%

CNC(=O)c1cc(Cl)cc(Cl)c1NC(=O)c1cc(Cl)nn1-c1ccccc1Cl [Compound 84]
excellent levels of plant protection (feeding damage) [1]: ≤ 20% | very good to excellent levels of plant protection (feeding damage) [2]: ≤ 20%

CNC(=O)c1cc(C#N)cc(C)c1NC(=O)c1cc(C(F)(F)F)nn1-c1ccccc1Cl [Compound 86]
excellent levels of plant protection (feeding damage) [1]: ≤ 20% | very good to excellent levels of plant protection (feeding damage) [2]: ≤ 20%

Cc1cc(C#N)cc(C(N)=O)c1NC(=O)c1cc(C(F)(F)F)nn1-c1ccccc1Cl [Compound 89]
excellent levels of plant protection (feeding damage) [1]: ≤ 20% | very good to excellent levels of plant protection (feeding damage) [2]: ≤ 20%

Cc1cc(C#N)cc(C(=O)NC(C)C)c1NC(=O)c1cc(C(F)(F)F)nn1-c1ccccc1Cl [Compound 90]
excellent levels of plant protection (feeding damage) [1]: ≤ 20% | very good to excellent levels of plant protection (feeding damage) [2]: ≤ 20%

CNC(=O)c1cc(C#N)cc(C)c1NC(=O)c1cc(Br)nn1-c1c(Cl)cc(Cl)cc1Cl [Compound 91]
excellent levels of plant protection (feeding damage) [1]: ≤ 20% | very good to excellent levels of plant protection (feeding damage) [2]: ≤ 20%

Cc1cc(C#N)cc(C(N)=O)c1NC(=O)c1cc(Br)nn1-c1c(Cl)cc(Cl)cc1Cl [Compound 92]
excellent levels of plant protection (feeding damage) [1]: ≤ 20% | very good to excellent levels of plant protection (feeding damage) [2]: ≤ 20%

CNC(=O)c1cc(Cl)cc(Cl)c1NC(=O)c1cc(Br)nn1-c1c(Cl)cc(Cl)cc1Cl [Compound 93]
excellent levels of plant protection (feeding damage) [1]: ≤ 20% | very good to excellent levels of plant protection (feeding damage) [2]: ≤ 20%

CNC(=O)c1cc(Cl)cc(Cl)c1NC(=O)c1cc(Br)nn1-c1ccc(Cl)cc1Cl [Compound 94]
excellent levels of plant protection (feeding damage) [1]: ≤ 20% | very good to excellent levels of plant protection (feeding damage) [2]: ≤ 20%

Cc1cc(C#N)cc(C(=O)NC(C)C)c1NC(=O)c1cc(Br)nn1-c1ccc(Cl)cc1Cl [Compound 95]
excellent levels of plant protection (feeding damage) [1]: ≤ 20% | very good to excellent levels of plant protection (feeding damage) [2]: ≤ 20%

CNC(=O)c1cc(C#N)cc(C)c1NC(=O)c1cc(Br)nn1-c1ccc(Cl)cc1Cl [Compound 96]
excellent levels of plant protection (feeding damage) [1]: ≤ 20% | very good to excellent levels of plant protection (feeding damage) [2]: ≤ 20%

Cc1cc(C#N)cc(C(N)=O)c1NC(=O)c1cc(Br)nn1-c1ccc(Cl)cc1Cl [Compound 97]
excellent levels of plant protection (feeding damage) [1]: ≤ 20% | very good to excellent levels of plant protection (feeding damage) [2]: ≤ 20%

Cc1cc(C#N)cc(C(=O)NC(C)C)c1NC(=O)c1cc(Br)nn1-c1c(Cl)cc(Cl)cc1Cl [Compound 98]
excellent levels of plant protection (feeding damage) [1]: ≤ 20% | very good to excellent levels of plant protection (feeding damage) [2]: ≤ 20%

CC(C)NC(=O)c1cc(Cl)cc(Cl)c1NC(=O)c1cc(Br)nn1-c1ccc(Cl)cc1Cl [Compound 99]
excellent levels of plant protection (feeding damage) [1]: ≤ 20% | very good to excellent levels of plant protection (feeding damage) [2]: ≤ 20%

NC(=O)c1cc(Cl)cc(Cl)c1NC(=O)c1cc(Br)nn1-c1ccc(Cl)cc1Cl [Compound 100]
excellent levels of plant protection (feeding damage) [1]: ≤ 20% | very good to excellent levels of plant protection (feeding damage) [2]: ≤ 20%

CC(C)NC(=O)c1cc(Cl)cc(Cl)c1NC(=O)c1cc(Br)nn1-c1ccc(F)cc1Cl [Compound 103]
excellent levels of plant protection (feeding damage) [1]: ≤ 20% | very good to excellent levels of plant protection (feeding damage) [2]: ≤ 20%
